Test results as given in the supplement of paper PMC11546906.
Where a name gives a salt, the structure may show the parent alone. The list shows a part of the results. Single values are uncertain here, since repeats match poorly.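 FDA-approved drugs were each paired with colistin at one-eighth its MIC and screened against a multidrug-resistant, mcr-1-positive clinical E. coli isolate, with OD600 read after 24 h. Drug-free bacteria served as growth control, plain broth as blank. Combinations were active if OD600 dropped below 0.2.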

Each compound was assayed on Escherichia coli 42 (mcr-1-positive clinical isolate) (assay: OD600 after 24 h growth with compound plus colistin (absorbance units (OD600)); higher = more bacterial growth (less inhibition)). Conditions: first compound 25 µM; colistin concentration 0.5 ug/mL; incubation time 24 h; 37 °C.

OD600, inactive:
Cn1c(=O)c2c(ncn2CC(O)CO)n(C)c1=O (stereo not drawn) [Diphylline] + CCC(C)CCCC(=O)N[C@@H](CCN)C(=O)N[C@H](C(=O)N[C@@H](CCN)C(=O)N[C@H]1CCNC(=O)[C@H]([C@@H](C)O)NC(=O)[C@H](CCN)NC(=O)[C@H](CCN)NC(=O)[C@H](CC(C)C)NC(=O)[C@@H](CC(C)C)NC(=O)[C@H](CCN)NC1=O)[C@@H](C)O [colistin] 1.11, CC[C@H](C)[C@H](N)C1=N[C@H](C(=O)N[C@@H](CC(C)C)C(=O)N[C@H](CCC(=O)O)C(=O)N[C@H](C(=O)N[C@H]2CCCCNC(=O)[C@H](CC(N)=O)NC(=O)[C@@H](CC(=O)O)NC(=O)[C@H](Cc3cnc[nH]3)NC(=O)[C@@H](Cc3ccccc3)NC(=O)[C@H]([C@@H](C)CC)NC(=O)[C@@H](CCCN)NC2=O)[C@@H](C)CC)CS1 [Bacitracin] + CCC(C)CCCC(=O)N[C@@H](CCN)C(=O)N[C@H](C(=O)N[C@@H](CCN)C(=O)N[C@H]1CCNC(=O)[C@H]([C@@H](C)O)NC(=O)[C@H](CCN)NC(=O)[C@H](CCN)NC(=O)[C@H](CC(C)C)NC(=O)[C@@H](CC(C)C)NC(=O)[C@H](CCN)NC1=O)[C@@H](C)O [colistin] 1.01, CC[C@]1(O)C[C@@H]2CN(CCc3c([nH]c4ccccc34)[C@@](C(=O)OC)(c3cc4c(cc3OC)N(C)[C@H]3[C@@](O)(C(=O)OC)[C@H](OC(C)=O)[C@]5(CC)C=CCN6CC[C@]43[C@@H]65)C2)C1 [Vinblastine sulfate] + CCC(C)CCCC(=O)N[C@@H](CCN)C(=O)N[C@H](C(=O)N[C@@H](CCN)C(=O)N[C@H]1CCNC(=O)[C@H]([C@@H](C)O)NC(=O)[C@H](CCN)NC(=O)[C@H](CCN)NC(=O)[C@H](CC(C)C)NC(=O)[C@@H](CC(C)C)NC(=O)[C@H](CCN)NC1=O)[C@@H](C)O [colistin] 1.14
